Data on one molecule can be found in ChEMBL document CHEMBL1132388, “A ureido-thioisobutyric acid (GW9578) is a subtype-selective PPARalpha agonist with potent lipid-lowering activity” (J Med Chem, 1999).

By EC50 is commonly meant the concentration needed to bring the measured effect to its halfway point. High values mean a need for much substance, low ones an effect from little substance.

The target of this assay is T1, Peroxisome proliferator-activated receptor gamma (Homo sapiens, UniProt P37231).
T1 sequence (P37231 whole entry): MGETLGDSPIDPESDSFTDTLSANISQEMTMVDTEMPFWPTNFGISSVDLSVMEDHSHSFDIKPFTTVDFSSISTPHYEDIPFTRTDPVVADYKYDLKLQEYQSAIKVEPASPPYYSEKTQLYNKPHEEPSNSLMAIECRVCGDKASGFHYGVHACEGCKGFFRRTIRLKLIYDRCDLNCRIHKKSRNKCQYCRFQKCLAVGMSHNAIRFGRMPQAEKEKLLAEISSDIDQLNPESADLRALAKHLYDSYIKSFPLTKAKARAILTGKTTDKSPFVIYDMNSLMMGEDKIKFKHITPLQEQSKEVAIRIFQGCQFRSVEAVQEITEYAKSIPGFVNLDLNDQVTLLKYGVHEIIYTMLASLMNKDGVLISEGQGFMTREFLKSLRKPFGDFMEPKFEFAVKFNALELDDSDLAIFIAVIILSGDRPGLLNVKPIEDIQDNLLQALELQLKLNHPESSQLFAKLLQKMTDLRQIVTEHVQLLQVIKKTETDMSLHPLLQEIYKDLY

For `CCCCCCCN(CCc1ccc(SC(C)(C)C(=O)O)cc1)C(=O)Nc1ccc(F)cc1F` [GSK-9578], the EC50 was determined as 1000 nM.
